{"sequences": {"note": "The chains behind the UniProt entries cited, without tags or fusion partners. Where a name states a change or a piece, a line headed by the entry shows the natural chain unless it says otherwise.", "UniProt P51450": "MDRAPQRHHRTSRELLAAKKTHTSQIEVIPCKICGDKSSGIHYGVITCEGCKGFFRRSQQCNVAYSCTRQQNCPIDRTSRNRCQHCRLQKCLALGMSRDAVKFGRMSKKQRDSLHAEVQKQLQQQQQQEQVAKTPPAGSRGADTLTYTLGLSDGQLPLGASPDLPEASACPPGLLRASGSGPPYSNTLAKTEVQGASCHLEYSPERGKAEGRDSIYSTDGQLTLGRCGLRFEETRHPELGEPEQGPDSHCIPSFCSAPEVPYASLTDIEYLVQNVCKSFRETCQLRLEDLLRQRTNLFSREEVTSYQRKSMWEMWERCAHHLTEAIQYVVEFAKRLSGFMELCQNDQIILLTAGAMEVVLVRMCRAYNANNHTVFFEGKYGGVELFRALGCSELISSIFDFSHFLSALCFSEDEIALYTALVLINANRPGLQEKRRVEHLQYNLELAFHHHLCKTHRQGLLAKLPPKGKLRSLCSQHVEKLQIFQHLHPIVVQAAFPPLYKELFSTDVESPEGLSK"}, "source": "PubChem BioAssay AID2551", "about": "(National Center for Advancing Translational Sciences (NCATS), 2010)", "note": "“And” between values parts separate entries of the source, which are not always exact repeats. Identical values can stand only once. Screen size: about 310,000 compounds; about 17,000 (5.5%) were called active. The shares of active, inactive and inconclusive entries below differ from those in the screen. Calls come from the whole dose curve; as a rule, active = well fitted inhibition curve with a large enough effect; inconclusive = small, poorly fitted or top-dose-only effect, or effect the other way; inactive = no such curve, though single readings can be large or run the other way. A potency beside an inconclusive call is a rough fit, not a confirmed value. Potency is the fitted concentration of half-maximal effect."}
{"target": "Nuclear receptor ROR-gamma (Mus musculus) (UniProt P51450)", "test": "qHTS for inhibitors of ROR gamma transcriptional activity; note: nearly all actives have a fitted effect of over 60% in size", "conditions": "Drosophila S2 Gal4-RORgamma UAS-luciferase reporter, 20 h; series mostly up to 53.6 µM", "procedure,_shortened": "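ROR gamma transcriptional activity was tracked as Gal4-UAS luciferase output in stably transfected Drosophila Schneider cells, with compound added 1 hr before 700 uM copper sulfate induction and a 20 hr ambient-temperature incubation.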"}
{"smiles": "CN1CCN(CCC=C2c3ccccc3Sc3ccc(S(=O)(=O)N(C)C)cc32)CC1", "Potency": "inconclusive: 15.8 µM [inhibitor, single point] and inconclusive: 22.4 µM [inhibitor, single point]"}
{"smiles": "O=C1NC(=Nc2ccccc2Cl)S/C1=C\\c1cccc([N+](=O)[O-])c1", "Potency": "inconclusive: 10 µM [activator, partial curve, poor fit]"}
{"smiles": "COC(=O)C1=C(C)N(C)C(=O)/C1=C\\c1cccs1", "Potency": "inconclusive: 12.6 µM [activator, partial curve, poor fit]"}
{"smiles": "Cc1ccc(C(=O)O/N=C(\\N)c2ccccn2)cc1", "Potency": "active: 8.91 µM"}
{"smiles": "O=C(N1CCN(c2ccccc2F)CC1)C12CC3CC(CC(C3)C1)C2", "Potency": "inconclusive: 22.4 µM [inhibitor, partial curve]"}
{"smiles": "CCCCc1cc(=O)oc2cc(C)cc(O)c12", "Potency": "inconclusive: 35.5 µM [inhibitor, single point]"}
{"smiles": "O=C(CN1CCN(Cc2ccccc2)CC1)Nc1cccc(C(F)(F)F)c1", "Potency": "inactive"}
{"smiles": "COc1ccc(N=C2S/C(=C\\c3ccc(Cl)c([N+](=O)[O-])c3)C(=O)N2CCN(C)C)cc1", "Potency": "inconclusive: 12.6 µM [inhibitor, single point]"}
{"smiles": "CC(C)(C)c1ccc(OCCOc2ccc(C(C)(C)C)cc2NC=O)c(NC=O)c1", "Potency": "inconclusive: 35.5 µM [inhibitor, single point]"}
{"smiles": "N#Cc1c(-c2ccc(Cl)cc2)cc(-c2cccs2)nc1SCC(=O)O", "Potency": "inactive"}
{"smiles": "COc1ccc(CN2CCN(C3CCC3)CC2CCO)cc1C", "note": "(centres undefined)", "Potency": "inactive"}
{"smiles": "Cc1ccc2[nH]cc(CCNC(=O)C3CCCCC3)c2c1", "Potency": "inconclusive: 35.5 µM [activator, single point]"}
{"smiles": "Cc1ccc(C)c(NC(=O)Cn2cc(C(=O)C3CC3)c3ccccc32)c1", "Potency": "inconclusive: 35.5 µM [activator, single point]"}
{"smiles": "Cc1ccc(S(=O)(=O)NC(C)(C)CSc2ncccn2)cc1", "Potency": "inconclusive: 7.08 µM [activator, partial curve]"}
{"smiles": "Cc1ccccc1C(=O)N1CCN(c2ccc(NC(=O)c3ccco3)cc2)CC1", "Potency": "inconclusive: 7.94 µM [activator, partial curve, poor fit]"}
{"smiles": "CCN(CCNC(=O)C1=C(C)C(=O)OC12CCC(C)CC2)c1ccccc1", "note": "(centres undefined)", "Potency": "inconclusive: 35.5 µM [activator, single point]"}
{"smiles": "Cc1cc2nc(SCC(=O)N(C)C)c3c(c2cc1C)CCCC3", "Potency": "inconclusive: 10 µM [inhibitor, partial curve, poor fit]"}
{"smiles": "O=C(Nc1ccccc1C(=O)Nc1cccnc1)c1ccccc1", "Potency": "inconclusive: 3.16 µM [inhibitor, single point]"}
{"smiles": "COc1ccc(C(=O)N/N=C(\\C)CC(=O)Nc2ccc3c(c2)OCO3)cc1", "Potency": "inconclusive: 31.6 µM [inhibitor, single point]"}
{"smiles": "N#Cc1c(C(F)(F)F)cc(=O)n2c1[nH]c1ccccc12", "Potency": "inconclusive: 2.51 µM [inhibitor, single point]"}
{"smiles": "C[C@H](NC(=O)c1nc[nH]c1C(=O)NCc1ccccc1)C(=O)OCc1ccccc1", "Potency": "inconclusive: 28.2 µM [inhibitor, single point]"}
{"smiles": "Cn1/c(=N/N=C/c2ccc([N+](=O)[O-])cc2)sc2ccccc21", "Potency": "inconclusive: 8.91 µM [inhibitor, partial curve, poor fit]"}
{"smiles": "Cc1ccc(C)c(NC(=S)/C(=C(\\[O-])c2ccc(OC(F)F)cc2)[n+]2ccccc2)c1", "Potency": "inactive"}
{"smiles": "CCc1cc2ccc(OC)cc2nc1SCC(=O)N1CCN(C(=O)c2ccco2)CC1", "Potency": "inactive"}
{"smiles": "COc1cc(NS(=O)(=O)c2ccc([N+](=O)[O-])cc2)c2ncccc2c1", "Potency": "active: 0.891 µM"}
{"smiles": "Cc1noc(C)c1S(=O)(=O)N1CCC(C(=O)N2CCC(N3CCCCC3)CC2)CC1", "Potency": "inconclusive: 22.4 µM [inhibitor, single point]"}
{"smiles": "CCCCOc1cccc(OCC(=O)Nc2nc3ccccc3[nH]2)c1", "Potency": "active: 15.8 µM"}
{"smiles": "O=C(CCCCCNC(=S)Nc1ccccc1)C[N+](=O)[O-]", "Potency": "inconclusive: 0.501 µM [inhibitor, full curve]"}
{"smiles": "CC(C)Nc1ccc(Cl)cc1[N+](=O)[O-]", "Potency": "inactive"}
{"smiles": "CCn1c(C)csc1=NC(=O)c1ccccc1O", "Potency": "inconclusive: 3.98 µM [activator, full curve, poor fit]"}
{"smiles": "Fc1cccc(NC(=S)Nc2cccc3ccccc23)c1", "Potency": "inactive"}
{"smiles": "COC(=O)[C@@]1(Cc2ccc(F)cc2)[C@H]2c3cc(C(=O)N(C)C)n(CCc4ccc(OC)c(Br)c4)c3C[C@H]2CN1C(=O)c1ccccc1", "Potency": "inconclusive: 14.1 µM [activator, single point]"}
{"smiles": "O=C(Nc1cc(C(F)(F)F)ccc1Cl)C(Sc1cccc[n+]1[O-])c1ccccc1", "note": "(centres undefined)", "Potency": "inconclusive: 35.5 µM [inhibitor, single point]"}
{"smiles": "COc1ccccc1N/N=C/c1ccc2c(c1)OCO2", "Potency": "inconclusive: 35.5 µM [inhibitor, single point]"}
{"smiles": "CCCN1CCC(=O)N([C@H](CSc2ccc(Br)cc2)c2ccccc2)CC1", "Potency": "inactive"}
{"smiles": "CC(Cc1cccs1)NC(=S)Nc1ccc(F)cc1", "note": "(centres undefined)", "Potency": "active: 3.16 µM"}
{"smiles": "CCn1c(NC(=O)c2cccs2)nc2ccccc21", "Potency": "active: 0.708 µM"}
{"smiles": "COc1ccc(N(CC(=O)N2CCCCC2)S(=O)(=O)c2c(C)nn(C)c2C)cc1", "Potency": "inactive"}
{"smiles": "CSc1ncccc1C(=O)NC1CCCc2c1cnn2-c1ccc(C)c(C)c1", "note": "(centres undefined)", "Potency": "inconclusive: 5.62 µM [activator, full curve]"}
{"smiles": "COC(=O)C1=C(C)N(Cc2ccco2)C(=O)N[C@H]1c1ccc(Br)cc1", "Potency": "inconclusive: 12.6 µM [activator, partial curve]"}
{"smiles": "O=[N+]([O-])c1ccc(N2N=C(c3ccccc3)CC2c2ccccc2O)cc1", "note": "(centres undefined)", "Potency": "inactive"}
{"smiles": "Cc1ccc2cc(/C=N/NC(=O)c3ccccc3[N+](=O)[O-])c(Cl)nc2c1", "Potency": "inactive"}
{"smiles": "Cc1cccc(-c2cc(C(=O)Nc3sc(C)c(C)c3C(N)=O)c3ccccc3n2)c1", "Potency": "inconclusive: 35.5 µM [inhibitor, single point]"}
{"smiles": "COc1ccc(C(=O)NCc2nnc(SC)n2C2CCCCC2)cc1", "Potency": "inconclusive: 0.005 µM [activator, full curve, poor fit]"}
